# Experimental data reported in patent publication US9814720B2, “Compositions and methods of inhibiting IL-17 expression of neutrophils” (priority 2014, dated 2017).
# At least one compound was matched to its structure with a doubt left.
# What was measured:
# [1] = system: A. fumigatus hyphae; assay: In vitro fungal killing assay (hyphal coincubation) with human neutrophils; format: cell-based, Aspergillus fumigatus; conditions: IL-6/23-stimulated, inhibitor 20 μM, FIG. 6F
# From the text: (§1) Aspergillus strains—For cornea infections and in vitro fungal killing assays, an RFP expressing strain of A. fumigatus (Af-dsRed) was used. This strain is gpdA promoter driven to constitutively express monomeric dsRed. For subcutaneous “priming” injections, heat-killed, swollen conidia Aspergillus fumigatus strain Af-BP was used. For the Aspergillus hyphal extract used in ROS assay, A. fumigatus strain Af-BP hyphae were pulverized in liquid nitrogen, filtered through a 30 μm pre-separation filter (Miltenyi Biotec) and protein measured by the BCA method (Pierce). Aspergillus hyphal extracts (AspHE) were stored at −20° C. and used at a final concentration of 1 mg/ml.
# (§2) A hyphal coincubation assay was used to study the ability of murine and human neutrophils to inhibit A. fumigatus hyphal growth as described. Briefly, 12,500 A. fumigatus dsRed expressing conidia (strain Af-dsRed) per 200 μl Sabouraud dextrose media were added to wells of black-walled 96 well plates with an optically clear bottom (CoStar 3720). […]
# (§3) Murine and human neutrophils were incubated with p-STAT3 (20 μM Stattic or 20 μM INC424) or RORγt inhibitors (20 μM SR1001) for 2 h. […] After 16 h the wells were washed with PBS and the dsRed fungal mass was quantified in a 96-well fluorometer at 550/600 nm excitation/emission filter (Synergy HT, Biotek).
# [2] = system: RORγt; assay: RORγt nuclear translocation in IL-6/23-stimulated human neutrophils (nuclear extract western blot, confocal); format: cell-based
# Experimental: (§4) Neutrophils were isolated from peripheral blood of healthy donors. Peripheral blood was incubated in 3% Dextran, and neutrophils isolated by Ficoll gradient centrifugation (Fisher Scientific), with neutrophil purity determined by staining with Wright-Giemsa.
# Murine or human neutrophils were suspended at a density of 10^6 cells/ml and incubated with […] of recombinant mouse or human IL-6 and 2 μg/ml IL-23 in RPMI, and the cells were maintained for 1-3 h at 37° C. in 5% CO2. Various inhibitors were used for assessing STAT3 activation. For STAT3, neutrophils were treated with either the STAT3-SH2 inhibitor, Stattic (20 μM) obtained from Tocris, or the JAK-1, 2 inhibitor, INC424, (aka Ruxolitinib; 20 μM (Selleck BioChem)). For the determination of RORγt-dependent signaling, SR1001 (20 μM; Sigma) was used, which inhibits RORγt binding to the IL-17 promoter site. All inhibitors were added to neutrophils 2 h prior to recombinant IL-6 and IL-23 stimulation. […]
# Neutrophils collected from primed or naïve C57BL/6 mice or unstimulated murine or human neutrophils were incubated with recombinant IL-6 and IL-23 for 60 min. […] Total protein was quantified using the BCA method, denatured with 2× Laemmli buffer (Sigma) and heated to 95° C. for 5 minutes. […] Ten μg of total protein was analyzed on a 12% SDS polyacrylamide gel, and transferred to nitrocellulose. […]
# [3] = system: p-STAT3; assay: Western blot of total cell lysate of IL-6/23-stimulated human neutrophils; format: cell-based; conditions: IL-6/23 1 h, FIG. 5A
# Experimental: as §4
# (§5) Murine or human neutrophils were suspended at a density of 10^6 cells/ml and incubated with […] of recombinant mouse or human IL-6 and 2 μg/ml IL-23 in RPMI, and the cells were maintained for 1-3 h at 37° C. in 5% CO2. Various inhibitors were used for assessing STAT3 activation. For STAT3, neutrophils were treated with either the STAT3-SH2 inhibitor, Stattic (20 μM) obtained from Tocris, or the JAK-1, 2 inhibitor, INC424, (aka Ruxolitinib; 20 μM (Selleck BioChem)). For the determination of RORγt-dependent signaling, SR1001 (20 μM; Sigma) was used, which inhibits RORγt binding to the IL-17 promoter site. All inhibitors were added to neutrophils 2 h prior to recombinant IL-6 and IL-23 stimulation.
# Neutrophils collected from primed or naïve C57BL/6 mice or unstimulated murine or human neutrophils were incubated with recombinant IL-6 and IL-23 for 60 min. After this time, cells were washed in PBS and lysed in ice-cold 1× lysis buffer (Cell Signaling Technology, Beverly, Mass.). Total protein was quantified using the BCA method, denatured with 2× Laemmli buffer (Sigma) and heated to 95° C. for 5 minutes. Nuclear extracts of the cells were prepared with the Pierce nuclear extract kit per the manufacturer's directions (Pierce). Ten μg of total protein was analyzed on a 12% SDS polyacrylamide gel, and transferred to nitrocellulose. Blots were probed with the following primary antibodies: Total STAT3 (R&D), p-STAT3 (R&D), RORγt (eBioscience), TATA box binding protein (TBP (Abcam)), and β-actin (Cell Signaling Technology). HRP-conjugated secondary antibodies were used (Santa Cruz Biotechnologies), and western blots developed with Supersignal West Femto Maximum Sensitivity Substrate (Pierce).
# [4] = system: human peripheral blood neutrophils; assay: ROS production (CFDA) by human peripheral blood neutrophils incubated with Aspergillus hyphae; format: cell-based; conditions: IL-6/23-stimulated, inhibitor 20 μM, FIG. 6E
# Experimental: (§6) Murine and human neutrophils were incubated with p-STAT3 (20 μM Stattic or 20 μM INC424) or RORγt inhibitors (20 μM SR1001) for 2 h. Then the cells were stimulated with […] of rIL-6 and 2 μg/ml of rIL-23 for 3 h, washed, and 2×10^5 bone marrow-derived murine neutrophils or 10^5 human peripheral blood neutrophils, with or without recombinant IL-17A, were added to each well with growing hyphae. RPMI media was used as positive control (unimpaired growth), and PBS was used as a negative control (no growth (data not shown)). After 16 h the wells were washed with PBS and the dsRed fungal mass was quantified in a 96-well fluorometer at 550/600 nm excitation/emission filter (Synergy HT, Biotek).
# (§7) In vitro ROS production measured by CFDA was previously described. Briefly, 100 μg/100 μl of A. fumigatus hyphal extract (AspHE) were incubated with 2×10^5 murine or human neutrophils. Neutrophils were treated for 1 h with 1 μM Carboxyfluorescein diacetate (H2CFDA (Sigma)), which will fluoresce following ROS oxidation. Neutrophils were collected and analyzed by flow cytometry. H2CFDA pulsed neutrophils that had not been incubated with AspHE were used to set the ROS histogram gate. The average mean intensity was calculated by Accuri flow software and graphed in Prism.
# [5] = system: A. fumigatus hyphae; assay: In vitro fungal killing assay (hyphal coincubation) with murine neutrophils; format: cell-based, Aspergillus fumigatus; conditions: IL-6/23-stimulated, inhibitor 20 μM, without rIL-17A, FIG. 6D
# From the text: as §1, §2, §3
# [6] = system: IL-17A; assay: IL-17A protein and Il17a gene expression in IL-6/23-stimulated human neutrophils; format: cell-based
# Experimental: as §4
# IL-17A protein production was quantified by 2-site ELISA, according to the manufacturer's directions (R&D Biosciences).
# as §5
# Neutrophil and corneal cell RNA was extracted using the RNeasy mini kit according to the manufacturer's directions (Qiagen, Valencia, Calif.). […]
# The SYBR green system (Applied Biosystems, Carlsbad, Calif.) was utilized for quantitative PCR (qPCR) using ABI Biosystems. […]
# [7] = system: RORγt; assay: RORγt nuclear translocation in IL-6/23-stimulated murine neutrophils (confocal imaging); format: cell-based, C57BL/6 mice; conditions: IL-6+IL-23 stimulated, inhibitor 20 μM, FIG. 4D
# From the text: (§8) Total bone marrow-derived cells were isolated from mouse femurs and tibias by flushing with RPMI and an 18-gauge needle. Erythrocytes were lysed with 1× lysis buffer (eBioscience), and bone marrow cells were separated on a Percoll (Fisher) gradient by density centrifugation (52%, 69%, and 78%). Cells at the 69-78% interface were harvested, and neutrophil purity (>98%) confirmed by flow cytometry and Wright-Giemsa staining. Murine or human neutrophils were suspended at a density of 10^6 cells/ml and incubated with […] of recombinant mouse or human IL-6 and 2 μg/ml IL-23 in RPMI, and the cells were maintained for 1-3 h at 37° C. in 5% CO2. Various inhibitors were used for assessing STAT3 activation. […] For the determination of RORγt-dependent signaling, SR1001 (20 μM; Sigma) was used, which inhibits RORγt binding to the IL-17 promoter site. All inhibitors were added to neutrophils 2 h prior to recombinant IL-6 and IL-23 stimulation. Corneas were dissected and incubated for 1 h at 37° C. in collaganese (80 U/ml) (C0130; Sigma-Aldrich), and washed in FACS buffer (PBS+1% FBS+0.5% Sodium azide). Ten corneas were pooled and analyzed by intracellular flow cytometry. Conversely, bone marrow cells or neutrophils were collected as described above and washed in FACS buffer. […] Cells were analyzed using a C6 Accuri flow cytometer (BD). […]
# [8] = system: bone marrow-derived murine neutrophils; assay: ROS production (CFDA) by murine bone marrow neutrophils incubated with Aspergillus hyphae; format: cell-based, C57BL/6 mice; conditions: IL-6/23-stimulated, inhibitor 20 μM, FIG. 6C
# Experimental: as §6, §7
# [9] = system: p-STAT3; assay: STAT3 phosphorylation in IL-6/23-stimulated murine bone marrow neutrophils (flow cytometry); format: cell-based, C57BL/6 mice; conditions: inhibitor 20 μM, 1 h IL-6+IL-23, FIG. 4C
# From the text: as §8
compound,measurement,setting,value
"N#CC[C@H](C1CCCC1)n1cc(-c2ncnc3[nH]ccc23)cn1 [INC424, Ruxolitinib]",fluorescent fungal mass,[1]; plus rhIL-17A,decreased fungal mass
same,fluorescent fungal mass,[1]; without rhIL-17A,no increase in ROS (FIG. 6E) or decrease in fluorescent fungal mass
same,RORγt localisation by confocal microscopy,[2],only detected in the cytoplasm
same,RORγt in nuclear extracts,"[2]; western blot, FIG. 5B",no longer detectable
same,RORγt expression (western blot),[3],not altered
same,total STAT3 expression (western blot),[3],not altered
same,p-STAT3 (western blot),[3]; inhibitor 20 μM,inhibited
same,ROS production,[4]; plus rhIL-17A,increased ROS
same,ROS production,[4]; without rhIL-17A,no increase in ROS
same,hyphal growth (fluorescent fungal mass),[5],did not further impede hyphal growth
same,IL-17A protein,[6]; FIG. 5D,ablated
same,Il17a gene expression,[6]; FIG. 5E,ablated
same,RORγt localisation (cytoplasm vs nucleus),[7],only detected in the cytoplasm
same,ROS production,[8]; plus rIL-17A,ROS production was increased
same,ROS production,[8]; without rIL-17A,not increased above the level produced by naïve neutrophils
same,p-STAT3 in IL-6/23 stimulated neutrophils,[9],completely inhibited
